According to patent publication US7811610B2, “Anti-inflammatory pharmaceutical compositions for reducing inflammation and the treatment or prevention of gastric toxicity” (priority 2002, dated 2010):

Test system: PGE2 synthesis in AGS human gastric mucosal cells
Test: Inhibition of PGE2 synthesis in AGS gastric mucosal cells (A23187), including combination index
Format: cell-based

COc1ccc2cc([C@H](C)C(=O)O)ccc2c1 [Naproxen, 2-naphthaleneacetic acid, 5 methoxy-α-methyl-(+)]
AGS/A549 (therapeutic index, IC50 ratio): 0.03
